Earlier results, collected in patent publication US20260240879A1, “TOPICAL PALA THERAPY FOR CANCER” (priority 2023, published 2026).
Some results were stated once for a whole list of compounds, not compound by compound. Some ranges recur; such a range may be that of the whole group of compounds.

tested on: AKs; settings: FDA-approved topical treatments; cited from earlier work

SMILES | reported response rates for AKs
O=c1[nH]cc(F)c(=O)[nH]1 [Formulation 5-FU, fluorouracil] | 40-80%
CC(C)Cn1cnc2c(N)nc3ccccc3c21 [IMQ, imiquimod] | 40-80%
O=C(Cc1ccc(-c2ccc(OCCN3CCOCC3)cc2)cn1)NCc1ccccc1 [tirbanibulin] | 40-80%
